In article PMC8119208 (JCI Insight, 2021):
These are yes or no findings as the source states them, for the method shown. For some assays here: Binding seen in cells or lysates may run through a third protein. Some results given as binding are weak or reduced against the parent protein; the word gives no strength. For some assays here: Tags and fused reporters may be left off the sequences shown. Values belong to the binder of their own block, whether it stands above or below them.

What was measured:
[1] = target: PD-L1 (programmed death ligand 1), exogenous, expressed in HEK293T cells (human) (UniProt Q9NZQ7); assay: co-IP; HEK293T cells transfected with PD-L1 and HA-tagged PTP1B for 48 hours; immunoprecipitation followed by immunoblotting
[2] = target: PD-L1 (programmed death ligand 1), exogenous, expressed in HEK293T cells (human) (UniProt Q9NZQ7); assay: co-IP; PD-L1 overexpressed in HEK293T immunoprecipitated by PD-L1 antibody; endogenous partners seen by immunoblotting
[3] = target: endogenous PD-L1 of MDA-MB-231 cells (human (endogenous in MDA-MB-231)) (UniProt Q9NZQ7); assay: co-IP; endogenous proteins in MDA-MB-231 cells; endogenous PD-L1 as bait
[4] = target: T1, GST-fused PTP1B (amino acids 1-277) (UniProt P18031); assay: pull-down; GST pull-down with purified proteins from E. coli: His-PDL1-CT / MBP-PDL1-CT (0.5 μg) and 0.5 μg GST or GST-fusion proteins; both purified
T1 sequence: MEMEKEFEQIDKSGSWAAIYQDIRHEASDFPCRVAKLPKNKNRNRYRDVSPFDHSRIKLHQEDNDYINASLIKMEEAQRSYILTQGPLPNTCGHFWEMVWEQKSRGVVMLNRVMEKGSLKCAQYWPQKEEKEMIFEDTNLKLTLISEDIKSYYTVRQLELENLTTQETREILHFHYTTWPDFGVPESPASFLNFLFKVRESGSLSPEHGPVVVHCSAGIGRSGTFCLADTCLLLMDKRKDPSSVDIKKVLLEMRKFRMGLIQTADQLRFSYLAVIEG

[5] = target: T2, GST-fused PTP1B (amino acids 1-321) (UniProt P18031); assay: as above
T2 sequence: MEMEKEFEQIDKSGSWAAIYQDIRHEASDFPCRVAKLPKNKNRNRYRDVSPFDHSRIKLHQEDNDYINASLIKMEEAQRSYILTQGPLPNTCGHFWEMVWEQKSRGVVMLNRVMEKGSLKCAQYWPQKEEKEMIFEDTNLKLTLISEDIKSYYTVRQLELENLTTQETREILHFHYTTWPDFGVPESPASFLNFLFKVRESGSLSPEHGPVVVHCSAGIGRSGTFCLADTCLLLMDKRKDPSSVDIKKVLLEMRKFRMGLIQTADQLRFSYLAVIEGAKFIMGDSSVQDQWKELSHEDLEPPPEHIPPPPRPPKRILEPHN

B1: HA-tagged PTP1B (enzyme, UniProt P18031 1-435)
chain: MEMEKEFEQIDKSGSWAAIYQDIRHEASDFPCRVAKLPKNKNRNRYRDVSPFDHSRIKLHQEDNDYINASLIKMEEAQRSYILTQGPLPNTCGHFWEMVWEQKSRGVVMLNRVMEKGSLKCAQYWPQKEEKEMIFEDTNLKLTLISEDIKSYYTVRQLELENLTTQETREILHFHYTTWPDFGVPESPASFLNFLFKVRESGSLSPEHGPVVVHCSAGIGRSGTFCLADTCLLLMDKRKDPSSVDIKKVLLEMRKFRMGLIQTADQLRFSYLAVIEGAKFIMGDSSVQDQWKELSHEDLEPPPEHIPPPPRPPKRILEPHNGKCREFFPNHQWVKEETQEDKDCPIKEEKGSPLNAAPYGIESMSQDTEVRSRVVGGSLRGAQAASPAKGEPSLPEKDEDHALSYWKPFLVNMCVATVLTAGAYLCYRFLFNSNT
binding [1]: binds

B2: endogenous PTP1B of HEK293T cells (enzyme, UniProt P18031 1-435)
chain: B1 chain
binding [2]: binds

binding [3]: binds
B3: endogenous PTP1B of MDA-MB-231 cells (enzyme, UniProt P18031 1-435)
chain: B1 chain

B4: MBP-tagged PD-L1 cytoplasmic domain (domain or fragment, human, UniProt Q9NZQ7 262-290, looked up)
chain: RKGRMMDVKKCGIQDTNSKKQSDTHLEET
notes: PD-L1 cytoplasmic domain, human, amino acids 262-290, subcloned into pET-His6 (Addgene plasmid 29656; named in the acknowledgements as PET His6 MBP TEV LIC cloning vector); The results and legend call it MBP-PDL1-CT, the methods of the pull-down His-PDL1-CT; also called MBP-PDL1-CT; His-PDL1-CT; source: E. coli, purified (His resin)
binding [4]: no binding (tested: 0.5 μg of each protein)
binding [5]: no binding (tested: 0.5 μg of each protein)
